No constants are given. Whether binding was seen depends on the method and setting. In cells and extracts the contact can be indirect. Some results given as binding are weak or reduced against the parent protein; the word gives no strength.
What was measured:
[1] = target: HDAC2 (mouse (endogenous in embryonic cortex)) (UniProt P70288); assay: co-IP; lysates of mouse cortices (E12.5, E15.5, E18.5), immunoprecipitation with HDAC2 antibody, immunoblotting for NuRD subunits
[2] = target: CHD3 (mouse (endogenous in embryonic cortex)) (UniProt B1AR17); assay: co-IP; lysates of E15.5 mouse cortices, immunoprecipitation with CHD3, CHD4 or CHD5 antibodies, immunoblotting
[3] = target: CHD4 (mouse (endogenous in embryonic cortex)) (UniProt Q6PDQ2); assay: as above
[4] = target: CHD5 (mouse (endogenous in embryonic cortex)) (UniProt A2A8L1); assay: as above
[5] = target: T1, MTA2 (in cultured NPCs and differentiated neurons) (rat (endogenous in NPCs from E14.5 rat cortices)) (UniProt B2GV01); assay: co-IP; cultured NPCs and neurons differentiated from them in vitro; which protein was precipitated is not told in the text (Figures S4C and S4D)
T1 sequence: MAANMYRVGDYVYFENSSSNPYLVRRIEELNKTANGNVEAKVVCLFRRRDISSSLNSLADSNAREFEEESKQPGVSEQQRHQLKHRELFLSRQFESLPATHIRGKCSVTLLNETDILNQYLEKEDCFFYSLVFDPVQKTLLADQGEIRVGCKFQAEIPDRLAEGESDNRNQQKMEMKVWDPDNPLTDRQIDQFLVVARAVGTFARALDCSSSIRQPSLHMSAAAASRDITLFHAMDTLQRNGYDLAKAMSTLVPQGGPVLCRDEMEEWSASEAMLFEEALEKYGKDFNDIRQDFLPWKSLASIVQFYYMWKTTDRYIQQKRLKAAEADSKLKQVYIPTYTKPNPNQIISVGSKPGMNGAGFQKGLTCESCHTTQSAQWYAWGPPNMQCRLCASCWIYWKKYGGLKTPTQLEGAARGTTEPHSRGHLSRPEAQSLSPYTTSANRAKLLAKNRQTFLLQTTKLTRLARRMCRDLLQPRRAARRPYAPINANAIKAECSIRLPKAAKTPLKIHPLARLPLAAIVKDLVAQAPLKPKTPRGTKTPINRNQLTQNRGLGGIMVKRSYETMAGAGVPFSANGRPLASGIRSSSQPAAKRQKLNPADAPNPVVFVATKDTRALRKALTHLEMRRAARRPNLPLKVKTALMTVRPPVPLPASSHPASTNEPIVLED

Chains of the proteins cited; added tags and fusions are not shown.
UniProt P70288: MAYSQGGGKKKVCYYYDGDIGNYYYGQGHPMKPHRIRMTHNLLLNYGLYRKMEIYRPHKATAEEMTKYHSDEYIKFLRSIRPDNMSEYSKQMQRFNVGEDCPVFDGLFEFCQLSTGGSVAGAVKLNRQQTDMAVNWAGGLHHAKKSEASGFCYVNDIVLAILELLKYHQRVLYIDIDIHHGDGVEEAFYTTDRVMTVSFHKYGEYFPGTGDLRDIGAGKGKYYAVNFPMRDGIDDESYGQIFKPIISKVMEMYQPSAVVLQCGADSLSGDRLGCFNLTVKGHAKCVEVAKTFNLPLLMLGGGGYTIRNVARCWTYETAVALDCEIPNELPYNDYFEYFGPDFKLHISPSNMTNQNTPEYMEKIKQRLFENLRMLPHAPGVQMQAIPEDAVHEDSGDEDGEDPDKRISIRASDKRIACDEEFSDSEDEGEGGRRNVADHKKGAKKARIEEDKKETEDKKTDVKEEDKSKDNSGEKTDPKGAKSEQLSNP
UniProt B1AR17: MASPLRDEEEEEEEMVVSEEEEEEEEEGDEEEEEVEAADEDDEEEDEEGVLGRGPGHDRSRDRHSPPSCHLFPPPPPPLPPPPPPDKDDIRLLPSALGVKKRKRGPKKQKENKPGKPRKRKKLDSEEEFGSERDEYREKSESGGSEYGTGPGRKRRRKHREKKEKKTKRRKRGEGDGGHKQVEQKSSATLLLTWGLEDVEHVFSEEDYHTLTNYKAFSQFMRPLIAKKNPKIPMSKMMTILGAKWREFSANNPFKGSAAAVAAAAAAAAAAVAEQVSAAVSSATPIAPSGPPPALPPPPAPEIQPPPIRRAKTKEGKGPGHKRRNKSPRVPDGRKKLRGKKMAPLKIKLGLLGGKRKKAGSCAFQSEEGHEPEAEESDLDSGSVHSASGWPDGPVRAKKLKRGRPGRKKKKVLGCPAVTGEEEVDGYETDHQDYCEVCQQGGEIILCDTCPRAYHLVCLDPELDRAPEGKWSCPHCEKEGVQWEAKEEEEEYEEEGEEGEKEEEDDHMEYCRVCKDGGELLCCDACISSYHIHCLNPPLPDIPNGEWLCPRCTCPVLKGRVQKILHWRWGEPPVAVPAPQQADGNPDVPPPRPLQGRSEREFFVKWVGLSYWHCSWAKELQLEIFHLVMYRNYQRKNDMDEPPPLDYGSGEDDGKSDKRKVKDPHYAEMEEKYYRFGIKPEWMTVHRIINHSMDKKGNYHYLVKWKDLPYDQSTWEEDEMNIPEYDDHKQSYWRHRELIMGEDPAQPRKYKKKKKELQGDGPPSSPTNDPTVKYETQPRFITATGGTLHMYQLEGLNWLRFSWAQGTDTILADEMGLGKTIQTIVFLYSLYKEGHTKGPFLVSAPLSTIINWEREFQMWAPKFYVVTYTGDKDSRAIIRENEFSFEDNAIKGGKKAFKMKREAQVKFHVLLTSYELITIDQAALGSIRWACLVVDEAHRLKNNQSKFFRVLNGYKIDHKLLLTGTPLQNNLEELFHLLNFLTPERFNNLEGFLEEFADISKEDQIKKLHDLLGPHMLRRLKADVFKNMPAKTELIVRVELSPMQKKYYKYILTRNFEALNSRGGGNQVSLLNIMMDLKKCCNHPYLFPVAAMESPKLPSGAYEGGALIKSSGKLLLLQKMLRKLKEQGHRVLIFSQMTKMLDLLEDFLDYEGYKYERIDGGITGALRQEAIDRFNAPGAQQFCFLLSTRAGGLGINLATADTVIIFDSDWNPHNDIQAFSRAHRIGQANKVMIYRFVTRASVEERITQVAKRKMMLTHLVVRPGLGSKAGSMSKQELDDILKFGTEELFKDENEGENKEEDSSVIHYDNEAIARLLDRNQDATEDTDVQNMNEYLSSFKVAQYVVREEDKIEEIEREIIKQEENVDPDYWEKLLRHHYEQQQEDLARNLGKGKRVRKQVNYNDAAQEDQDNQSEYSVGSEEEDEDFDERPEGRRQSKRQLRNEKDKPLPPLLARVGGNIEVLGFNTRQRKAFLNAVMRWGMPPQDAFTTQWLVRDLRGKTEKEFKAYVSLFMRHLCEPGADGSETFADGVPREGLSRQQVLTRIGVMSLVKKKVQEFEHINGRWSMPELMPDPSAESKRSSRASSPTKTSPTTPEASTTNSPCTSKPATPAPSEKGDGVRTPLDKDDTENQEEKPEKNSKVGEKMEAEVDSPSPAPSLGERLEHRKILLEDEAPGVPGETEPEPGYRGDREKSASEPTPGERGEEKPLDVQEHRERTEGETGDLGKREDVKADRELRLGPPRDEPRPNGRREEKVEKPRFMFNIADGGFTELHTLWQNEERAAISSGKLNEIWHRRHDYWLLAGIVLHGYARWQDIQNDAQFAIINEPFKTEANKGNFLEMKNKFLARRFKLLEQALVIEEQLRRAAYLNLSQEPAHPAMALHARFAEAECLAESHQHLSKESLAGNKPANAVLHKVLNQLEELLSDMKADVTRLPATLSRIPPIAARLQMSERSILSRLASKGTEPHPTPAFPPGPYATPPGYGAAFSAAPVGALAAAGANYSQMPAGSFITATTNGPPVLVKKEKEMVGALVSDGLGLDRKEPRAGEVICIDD
UniProt Q6PDQ2: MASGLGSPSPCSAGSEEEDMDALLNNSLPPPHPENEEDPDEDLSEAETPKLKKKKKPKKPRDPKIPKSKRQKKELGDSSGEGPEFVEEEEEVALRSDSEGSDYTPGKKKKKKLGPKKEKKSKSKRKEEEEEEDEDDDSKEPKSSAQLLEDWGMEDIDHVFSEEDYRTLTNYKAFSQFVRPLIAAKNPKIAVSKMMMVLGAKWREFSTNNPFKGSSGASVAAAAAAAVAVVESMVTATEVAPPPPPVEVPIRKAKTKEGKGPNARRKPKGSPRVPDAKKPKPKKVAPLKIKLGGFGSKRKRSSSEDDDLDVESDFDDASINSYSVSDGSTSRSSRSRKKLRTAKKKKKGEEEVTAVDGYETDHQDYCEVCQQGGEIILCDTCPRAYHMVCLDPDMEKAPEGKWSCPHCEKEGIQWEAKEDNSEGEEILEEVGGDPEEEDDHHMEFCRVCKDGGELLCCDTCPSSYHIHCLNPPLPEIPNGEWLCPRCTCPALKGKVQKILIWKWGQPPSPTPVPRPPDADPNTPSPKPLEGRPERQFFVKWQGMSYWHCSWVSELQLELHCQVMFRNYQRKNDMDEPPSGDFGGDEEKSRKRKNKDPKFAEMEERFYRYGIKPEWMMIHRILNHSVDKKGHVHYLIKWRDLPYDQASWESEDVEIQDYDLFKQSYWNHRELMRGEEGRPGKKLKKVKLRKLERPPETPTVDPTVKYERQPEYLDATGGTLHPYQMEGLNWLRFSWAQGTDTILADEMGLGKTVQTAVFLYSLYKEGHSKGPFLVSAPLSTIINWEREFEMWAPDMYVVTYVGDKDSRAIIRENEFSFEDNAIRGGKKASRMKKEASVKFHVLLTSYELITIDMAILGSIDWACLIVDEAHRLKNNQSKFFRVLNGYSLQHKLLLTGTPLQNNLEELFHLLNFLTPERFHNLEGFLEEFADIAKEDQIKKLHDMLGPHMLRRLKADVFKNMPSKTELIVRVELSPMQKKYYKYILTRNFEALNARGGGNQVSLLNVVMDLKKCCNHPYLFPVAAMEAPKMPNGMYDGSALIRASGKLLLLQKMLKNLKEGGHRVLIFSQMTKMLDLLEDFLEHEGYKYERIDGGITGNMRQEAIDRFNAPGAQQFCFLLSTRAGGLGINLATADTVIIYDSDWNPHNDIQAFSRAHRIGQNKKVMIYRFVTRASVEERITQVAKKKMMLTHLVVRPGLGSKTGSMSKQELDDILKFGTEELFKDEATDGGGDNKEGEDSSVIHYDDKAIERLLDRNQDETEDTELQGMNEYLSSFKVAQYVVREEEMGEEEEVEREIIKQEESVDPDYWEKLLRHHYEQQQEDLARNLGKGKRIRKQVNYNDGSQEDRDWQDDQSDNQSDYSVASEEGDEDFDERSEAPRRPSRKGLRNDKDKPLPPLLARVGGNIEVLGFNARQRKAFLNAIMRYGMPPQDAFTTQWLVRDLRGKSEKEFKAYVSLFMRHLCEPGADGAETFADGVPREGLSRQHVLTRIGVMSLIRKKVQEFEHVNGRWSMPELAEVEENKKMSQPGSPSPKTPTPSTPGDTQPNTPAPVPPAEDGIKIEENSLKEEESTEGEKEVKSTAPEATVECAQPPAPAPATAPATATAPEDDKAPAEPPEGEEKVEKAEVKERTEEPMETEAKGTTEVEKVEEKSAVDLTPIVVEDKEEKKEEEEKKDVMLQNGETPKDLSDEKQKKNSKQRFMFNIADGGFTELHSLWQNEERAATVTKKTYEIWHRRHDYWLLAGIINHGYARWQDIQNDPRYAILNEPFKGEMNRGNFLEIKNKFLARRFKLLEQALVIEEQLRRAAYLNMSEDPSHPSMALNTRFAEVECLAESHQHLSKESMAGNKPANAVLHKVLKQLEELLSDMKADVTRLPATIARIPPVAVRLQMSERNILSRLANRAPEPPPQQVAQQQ
UniProt A2A8L1: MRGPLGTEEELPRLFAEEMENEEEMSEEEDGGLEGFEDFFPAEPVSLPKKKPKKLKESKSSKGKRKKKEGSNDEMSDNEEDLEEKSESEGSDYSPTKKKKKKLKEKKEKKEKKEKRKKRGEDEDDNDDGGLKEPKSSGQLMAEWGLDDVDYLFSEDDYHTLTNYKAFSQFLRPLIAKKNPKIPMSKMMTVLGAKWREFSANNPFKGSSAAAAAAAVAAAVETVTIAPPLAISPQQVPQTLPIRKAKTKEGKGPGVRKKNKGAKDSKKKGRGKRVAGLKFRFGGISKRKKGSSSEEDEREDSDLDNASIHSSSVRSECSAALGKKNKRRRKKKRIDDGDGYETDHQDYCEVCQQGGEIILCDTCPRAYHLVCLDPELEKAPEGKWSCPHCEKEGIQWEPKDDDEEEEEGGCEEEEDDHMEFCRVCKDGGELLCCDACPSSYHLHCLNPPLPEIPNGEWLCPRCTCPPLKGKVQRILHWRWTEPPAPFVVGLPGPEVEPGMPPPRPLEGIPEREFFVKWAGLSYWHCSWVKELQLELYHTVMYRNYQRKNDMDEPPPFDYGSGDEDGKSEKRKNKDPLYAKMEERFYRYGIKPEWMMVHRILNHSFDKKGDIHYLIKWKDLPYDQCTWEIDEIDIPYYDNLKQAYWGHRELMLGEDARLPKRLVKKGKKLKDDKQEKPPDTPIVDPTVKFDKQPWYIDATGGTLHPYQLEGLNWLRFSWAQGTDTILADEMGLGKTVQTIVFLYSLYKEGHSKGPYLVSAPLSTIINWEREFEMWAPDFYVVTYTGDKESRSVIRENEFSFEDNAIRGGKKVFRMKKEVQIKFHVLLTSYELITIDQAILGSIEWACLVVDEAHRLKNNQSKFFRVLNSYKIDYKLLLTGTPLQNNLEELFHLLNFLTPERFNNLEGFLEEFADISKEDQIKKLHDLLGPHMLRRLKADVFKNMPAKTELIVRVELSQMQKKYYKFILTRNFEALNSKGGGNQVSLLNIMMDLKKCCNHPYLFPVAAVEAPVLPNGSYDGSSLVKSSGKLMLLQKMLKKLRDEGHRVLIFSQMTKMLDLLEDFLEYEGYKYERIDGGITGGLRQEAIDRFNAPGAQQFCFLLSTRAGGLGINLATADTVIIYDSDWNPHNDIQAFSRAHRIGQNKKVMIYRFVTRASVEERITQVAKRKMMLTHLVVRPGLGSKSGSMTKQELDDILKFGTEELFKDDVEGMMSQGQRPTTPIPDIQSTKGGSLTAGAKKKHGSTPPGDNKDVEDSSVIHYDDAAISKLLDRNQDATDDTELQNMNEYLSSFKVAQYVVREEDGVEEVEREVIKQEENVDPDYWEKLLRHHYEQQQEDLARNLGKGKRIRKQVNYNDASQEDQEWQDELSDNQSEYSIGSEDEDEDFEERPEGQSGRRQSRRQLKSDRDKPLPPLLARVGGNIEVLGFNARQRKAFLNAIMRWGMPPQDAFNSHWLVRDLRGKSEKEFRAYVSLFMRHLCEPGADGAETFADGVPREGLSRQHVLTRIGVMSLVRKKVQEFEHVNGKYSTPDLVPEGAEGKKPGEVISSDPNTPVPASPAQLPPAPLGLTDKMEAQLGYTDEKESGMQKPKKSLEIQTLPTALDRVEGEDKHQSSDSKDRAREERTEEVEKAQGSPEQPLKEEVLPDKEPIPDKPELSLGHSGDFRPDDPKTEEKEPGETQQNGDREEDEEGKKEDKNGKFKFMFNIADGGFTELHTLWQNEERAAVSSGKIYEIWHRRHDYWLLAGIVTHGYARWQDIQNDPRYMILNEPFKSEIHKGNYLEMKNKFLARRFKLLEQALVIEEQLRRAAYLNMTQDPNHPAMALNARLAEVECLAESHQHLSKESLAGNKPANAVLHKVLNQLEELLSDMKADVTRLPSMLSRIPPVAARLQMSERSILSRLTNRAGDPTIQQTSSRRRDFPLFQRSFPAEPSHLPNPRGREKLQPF

Substance	binding [1]	binding [2]	also measured
MTA2 (from UniProt Q9R190 1-668)	binds		
CHD3 (from UniProt B1AR17 1-2055)	binds		
HDAC2 (from UniProt P70288 1-488)		binds	binding [3]: binds; binding [4]: binds
CHD4 (from UniProt Q6PDQ2 1-1915)	binds	no binding	
CHD5 (in cultured NPCs and differentiated neurons) (from UniProt D3ZD32 1-1948)			binding [5]: binds
CHD5 (from UniProt A2A8L1 1-1946)	binds	no binding	binding [3]: no binding
MTA1 (from UniProt Q8K4B0 1-715)	binds		
